Like-named read-outs stand apart in the source and are kept apart here. Results are given in words; binding and its absence hold for the method and conditions named. Binding seen in cells or lysates may run through a third protein. Some entries that bind do so weakly or less than the wild type.
Experiments:
[1] = target: myc-tagged EZH2 (Enhancer of zeste homolog 2) (UniProt Q15910); experiment: co-IP
[2] = target: myc-tagged EZH2 (Enhancer of zeste homolog 2) (UniProt Q15910); experiment: co-IP; remark: listed apart in the source

The chains behind the UniProt entries cited, without tags or fusion partners.
UniProt Q15910, whole entry: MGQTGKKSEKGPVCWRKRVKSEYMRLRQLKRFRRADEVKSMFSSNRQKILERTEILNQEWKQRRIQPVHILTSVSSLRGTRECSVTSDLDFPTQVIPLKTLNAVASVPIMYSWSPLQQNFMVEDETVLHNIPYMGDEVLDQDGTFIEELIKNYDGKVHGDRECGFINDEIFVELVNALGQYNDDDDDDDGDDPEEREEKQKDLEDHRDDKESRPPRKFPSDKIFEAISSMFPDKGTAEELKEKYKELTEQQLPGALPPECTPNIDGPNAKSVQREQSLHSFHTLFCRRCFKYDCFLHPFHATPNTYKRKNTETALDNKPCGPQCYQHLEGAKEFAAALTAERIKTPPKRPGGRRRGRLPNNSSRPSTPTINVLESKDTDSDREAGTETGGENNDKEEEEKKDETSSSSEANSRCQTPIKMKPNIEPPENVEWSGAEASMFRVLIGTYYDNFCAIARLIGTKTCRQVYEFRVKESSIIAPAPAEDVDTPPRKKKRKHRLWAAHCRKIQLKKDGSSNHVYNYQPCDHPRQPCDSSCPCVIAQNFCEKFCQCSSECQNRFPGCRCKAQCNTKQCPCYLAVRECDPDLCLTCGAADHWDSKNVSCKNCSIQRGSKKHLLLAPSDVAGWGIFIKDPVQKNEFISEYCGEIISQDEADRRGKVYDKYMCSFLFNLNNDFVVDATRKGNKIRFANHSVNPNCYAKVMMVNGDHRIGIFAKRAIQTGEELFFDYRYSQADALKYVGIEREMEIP
UniProt Q04206, whole entry: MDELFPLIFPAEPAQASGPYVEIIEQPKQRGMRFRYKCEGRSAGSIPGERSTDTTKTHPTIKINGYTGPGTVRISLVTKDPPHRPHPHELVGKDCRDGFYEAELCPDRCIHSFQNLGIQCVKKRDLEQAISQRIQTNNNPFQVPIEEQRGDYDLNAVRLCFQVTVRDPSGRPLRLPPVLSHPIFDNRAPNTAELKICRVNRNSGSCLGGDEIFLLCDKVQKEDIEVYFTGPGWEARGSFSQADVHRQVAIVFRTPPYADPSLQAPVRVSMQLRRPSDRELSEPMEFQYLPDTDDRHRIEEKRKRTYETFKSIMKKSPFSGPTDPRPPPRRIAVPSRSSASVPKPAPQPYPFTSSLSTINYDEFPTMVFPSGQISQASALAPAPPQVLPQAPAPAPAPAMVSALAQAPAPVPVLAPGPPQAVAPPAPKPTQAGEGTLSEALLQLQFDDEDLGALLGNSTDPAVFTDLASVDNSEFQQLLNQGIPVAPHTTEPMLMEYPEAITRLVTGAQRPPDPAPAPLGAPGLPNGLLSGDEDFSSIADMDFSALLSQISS

For “FLAG-tagged p65 (from UniProt Q04206 1-551)”, the binding [1] was “binds” and the binding [2] was “binds”.
